In publication PMC12727695:
These are yes or no findings as the source states them, for the method shown. In cells and extracts the contact can be indirect. Some results given as binding are weak or reduced against the parent protein; the word gives no strength.

Amino acid sequences for entries named in this document (tags omitted). Residues count along the entry.
UniProt Q9D9E0: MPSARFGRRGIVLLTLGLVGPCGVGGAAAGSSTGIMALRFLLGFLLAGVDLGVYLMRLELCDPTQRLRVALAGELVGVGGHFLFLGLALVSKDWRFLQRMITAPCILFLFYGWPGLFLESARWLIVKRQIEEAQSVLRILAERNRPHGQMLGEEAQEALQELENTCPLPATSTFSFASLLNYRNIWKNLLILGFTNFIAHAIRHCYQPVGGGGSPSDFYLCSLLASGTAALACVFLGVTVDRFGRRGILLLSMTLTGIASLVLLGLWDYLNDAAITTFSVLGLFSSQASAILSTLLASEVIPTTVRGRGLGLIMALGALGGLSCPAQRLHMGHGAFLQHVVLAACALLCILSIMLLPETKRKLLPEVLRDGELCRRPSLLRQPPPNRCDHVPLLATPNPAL
UniProt P80188, residues 21-198: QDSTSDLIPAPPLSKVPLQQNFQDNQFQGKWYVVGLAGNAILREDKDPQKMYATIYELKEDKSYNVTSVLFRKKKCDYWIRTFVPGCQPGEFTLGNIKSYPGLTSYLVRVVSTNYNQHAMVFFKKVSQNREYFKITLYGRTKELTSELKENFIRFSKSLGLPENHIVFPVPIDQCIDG

Target: SLC22A17 (mouse (endogenous in primary mouse astrocytes)) (UniProt Q9D9E0)
Assay: co-IP; lysates of astrocytes cocultured with TC1-OE cells; incubated overnight with target antibodies at 4 °C, then 30 min with protein A/G beads at room temperature; five washes; immunoblotting; the precipitating antibody is not told

Lipocalin-2 (LCN2) (from UniProt P80188 21-198) (ligand)
binding: binds
